Results are given in words; binding and its absence hold for the method and conditions named. Binding seen in cells or lysates may run through a third protein. A yes stands for co-enrichment or nearness to the bait. Other partners may have been found.
Biological target: histone methyltransferase G9a (human (endogenous in PBMCs of COVID-19 patients)) (UniProt Q96KQ7)
Test: affinity purification with mass spectrometry

The chains behind the UniProt entries cited, without tags or fusion partners.
UniProt Q96KQ7: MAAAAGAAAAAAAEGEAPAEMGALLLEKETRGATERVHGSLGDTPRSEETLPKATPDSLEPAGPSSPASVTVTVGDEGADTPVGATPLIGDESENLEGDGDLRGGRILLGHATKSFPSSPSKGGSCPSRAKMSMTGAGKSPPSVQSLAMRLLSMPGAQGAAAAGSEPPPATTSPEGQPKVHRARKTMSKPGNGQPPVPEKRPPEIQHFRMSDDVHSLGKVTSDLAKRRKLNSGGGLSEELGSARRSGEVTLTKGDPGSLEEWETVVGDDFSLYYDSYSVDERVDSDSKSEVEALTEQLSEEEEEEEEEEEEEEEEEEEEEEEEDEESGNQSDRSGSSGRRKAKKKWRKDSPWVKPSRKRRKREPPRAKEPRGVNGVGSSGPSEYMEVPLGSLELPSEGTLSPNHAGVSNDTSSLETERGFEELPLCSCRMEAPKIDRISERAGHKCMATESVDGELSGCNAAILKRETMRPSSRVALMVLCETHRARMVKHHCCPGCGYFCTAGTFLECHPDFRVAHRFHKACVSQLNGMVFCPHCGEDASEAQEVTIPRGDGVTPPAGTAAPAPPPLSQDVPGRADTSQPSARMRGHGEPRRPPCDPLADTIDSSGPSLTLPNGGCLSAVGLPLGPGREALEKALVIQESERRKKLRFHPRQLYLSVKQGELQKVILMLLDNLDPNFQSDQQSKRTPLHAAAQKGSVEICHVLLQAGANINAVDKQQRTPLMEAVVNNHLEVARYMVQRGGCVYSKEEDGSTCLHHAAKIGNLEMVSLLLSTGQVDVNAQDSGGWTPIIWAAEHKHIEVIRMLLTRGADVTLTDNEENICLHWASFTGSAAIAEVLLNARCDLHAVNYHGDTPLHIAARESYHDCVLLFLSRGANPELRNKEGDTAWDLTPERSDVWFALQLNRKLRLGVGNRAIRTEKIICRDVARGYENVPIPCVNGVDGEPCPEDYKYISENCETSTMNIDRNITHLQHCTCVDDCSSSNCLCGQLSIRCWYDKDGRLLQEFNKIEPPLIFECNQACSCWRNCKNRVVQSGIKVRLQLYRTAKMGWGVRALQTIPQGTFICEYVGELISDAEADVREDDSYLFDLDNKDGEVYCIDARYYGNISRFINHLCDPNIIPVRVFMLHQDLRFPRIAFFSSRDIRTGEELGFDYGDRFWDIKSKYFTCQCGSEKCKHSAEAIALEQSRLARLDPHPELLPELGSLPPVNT

B1: ribosomal (r)RNA methylase fibrillarin (enzyme, UniProt P22087 1-321)
chain: MKPGFSPRGGGFGGRGGFGDRGGRGGRGGFGGGRGRGGGFRGRGRGGGGGGGGGGGGGRGGGGFHSGGNRGRGRGGKRGNQSGKNVMVEPHRHEGVFICRGKEDALVTKNLVPGESVYGEKRVSISEGDDKIEYRAWNPFRSKLAAAILGGVDQIHIKPGAKVLYLGAASGTTVSHVSDIVGPDGLVYAVEFSHRSGRDLINLAKKRTNIIPVIEDARHPHKYRMLIAMVDVIFADVAQPDQTRIVALNAHTFLRNGGHFVISIKANCIDSTASAEAVFASEVKKMQQENMKPQEQLTLEPYERDHAVVVGVYRPPPKVKN
- binding: binds

From publication doi:10.1101/2024.03.04.583415
